No constants are given. Whether binding was seen depends on the method and setting. Some binding calls cover weakened binding; strength is not graded here. Where a sequence is shown, tags or fusion partners need not be part of it. Values belong to the binder of their own block, whether it stands above or below them.
Columns and labels:
[1] = biological target: T1, Serum amyloid A (SAA) purified from human sera / human plasma (Trace Scientific) (human) (UniProt P0DJI8); assay: SPR (Biacore J), SAA on CM5 chip, GST-fused fragment injected
T1 sequence (looked up): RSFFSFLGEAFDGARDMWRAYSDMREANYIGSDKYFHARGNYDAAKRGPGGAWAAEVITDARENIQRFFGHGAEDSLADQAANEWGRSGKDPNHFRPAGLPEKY

[2] = biological target: T1, Serum amyloid A (SAA) purified from human sera / human plasma (Trace Scientific) (human); assay: SPR (Biacore J), SAA on chip, GST-FLtanis injected
[3] = biological target: T1, Serum amyloid A (SAA) purified from human sera / human plasma (Trace Scientific) (human); assay: SPR (Biacore J), SAA on CM5 chip, GST-FLtanis injected
[4] = biological target: T1, Serum amyloid A (SAA) purified from human sera / human plasma (Trace Scientific) (human); assay: SPR (Biacore J), human plasma SAA on CM5 chip, GST-full-length Tanis injected

binding [1]: binds
B1: GST-fused C tanis (117-189aa) (protein, not shown: a dimerising Fc or GST; small tags and cut ends)
chain: EMWDSMQEGRSYRRNPGRPQEEDGPGPSTSSSVTRKGKSDKKPLRGNGYNPLTGEGGGTCAWRPGRRGPSSGG

binding [2]: binds
binding [3]: binds
binding [4]: binds
B2: GST-full-length Tanis (protein, not shown: a dimerising Fc or GST; small tags and cut ends)
chain: MESAEEPLPARPALETEGLRFLHVTVGSLLASYGWYVLFSCILLYIVIQKLSVRLRVLRQRQLDQADAVLEPDAVVKRQEALAAARLRMQEDLNAQVEKHKEKLRQLEEEKRRQKIEMWDSMQEGRSYRRNPGRPQEEDGPGPSTSSSVTRKGKSDKKPLRGNGYNPLTGEGGGTCAWRPGRRGPSSGG
